Measured values as given in PubChem BioAssay AID1259354 (Paczesny and Yang Labs, IUPUI and University of Michigan, 2018).
About 1,800 (2.3%) of roughly 78,000 compounds were called active. Inconclusive results, whose numbers are uncertain, are shown with a selection of clear calls. Rule as the data show it: active = inhibition above about 30%; inconclusive = mostly about 10% to 28%; inactive = weaker than that.

Protein sequences, listed by entry. Tags and fused reporters are not part of them. Lines headed by an entry give the natural chain unless they say otherwise; changes in a name come on top.
UniProt Q01638: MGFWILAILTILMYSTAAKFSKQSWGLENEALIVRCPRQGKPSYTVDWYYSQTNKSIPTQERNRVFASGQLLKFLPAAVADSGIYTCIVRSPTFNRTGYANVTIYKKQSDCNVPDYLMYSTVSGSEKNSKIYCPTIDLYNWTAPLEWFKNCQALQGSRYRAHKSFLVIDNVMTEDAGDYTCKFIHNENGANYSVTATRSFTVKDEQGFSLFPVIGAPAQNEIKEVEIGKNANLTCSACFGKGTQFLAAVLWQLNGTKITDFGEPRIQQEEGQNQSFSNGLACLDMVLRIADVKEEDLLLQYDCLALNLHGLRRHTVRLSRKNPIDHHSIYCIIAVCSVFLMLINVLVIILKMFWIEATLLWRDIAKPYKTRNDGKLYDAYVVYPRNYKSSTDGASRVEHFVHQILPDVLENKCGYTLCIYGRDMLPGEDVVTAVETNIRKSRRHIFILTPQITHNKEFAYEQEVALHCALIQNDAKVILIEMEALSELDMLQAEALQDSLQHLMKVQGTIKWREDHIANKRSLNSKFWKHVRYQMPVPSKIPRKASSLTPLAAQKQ

target: Interleukin-1 receptor-like 1 (Homo sapiens) (UniProt Q01638); experiment: inhibitors of human ST2 (IL1RL1) binding to IL-33, primary screen, biochemical, AlphaLISA (AID 1259354); conditions: AlphaLISA ST2-Fc/biotin-IL-33 interaction, 1 h; at 17 µM, hits give high values

Row | Compound | inhibition
1 | Fc1cnccc1CN1CCC2(CCNCC2)C1 | inactive
2 | C=CCN(C)C(=O)[C@H]1CN2CCC1C[C@@H]2Cn1cc(CN(C)C)nn1 (stereo not given in full) | inconclusive: 10%
3 | Cc1nc2nc(SCC(=O)N3CCC4(CC3)OCCO4)nn2c(C)c1Cc1ccccc1 | inconclusive: 15%
4 | O=C(c1ccccc1)N1C[C@@H]2C[C@H](C1)c1c(-c3ccc(Cl)cc3)ccc(=O)n1C2 | inconclusive: 17%
5 | C=C[C@H]1CN2CC[C@H]1C[C@@H]2CNS(=O)(=O)c1ccc2ccccc2c1 | inconclusive: 12%
6 | S=C(NC[C@H]1C[C@@H]2CCN1C[C@@H]2CN1CCC(Cc2ccccc2)CC1)Nc1ccc(-n2cccn2)cc1 | inactive
7 | Cc1nc(C(F)(F)F)nc(N2CCOC3(CNCCOC3)C2)c1C (stereo not given) | inconclusive: 23%
8 | COc1ccc(N2CCN(Cc3ccc(F)cc3)CC2)cc1 | inconclusive: 24%
9 | CCN(C)CCc1c[nH]c2ccc(OC)cc12 | inconclusive: 16%
10 | C#CCOc1ccccc1/C=C/[N+](=O)[O-] | inconclusive: 29%
11 | CCOc1ccccc1N1CCN(Cc2cccc(OC)c2)CC1 | inconclusive: 14%
12 | O=C(NCc1cnn2cccnc12)C1CC2(CCNCC2)CN1 (stereo not given) | inconclusive: 19%
13 | Clc1cccc(N2CCN(Cc3ccc4c(c3)OCO4)CC2)c1 | inconclusive: 10%
14 | COc1cccc(/C=C/c2nc3ccccc3c(=O)n2-c2ccc(F)cc2)c1OC | inconclusive: 18%
15 | S=C(NC[C@H]1C[C@@H]2CCN1C[C@@H]2CN1CCCC1)Nc1ccc(-n2cccn2)cc1 | inactive
16 | C#C[C@H]1CN2CC[C@H]1C[C@@H]2CNC(=S)NCc1ccccc1 | inconclusive: 10%
17 | COc1ccccc1CNC(=O)[C@H]1CN2CCC1C[C@@H]2Cn1cc(-c2ccc(-c3ccccc3)cc2)nn1 (stereo not given in full) | inactive
18 | CN1CCc2cc(O)cc3c2[C@H]1Cc1ccc(O)c(O)c1-3 | inconclusive: 18%
19 | Fc1cccc(CN2CCN(c3ccccc3)CC2)c1 | inconclusive: 12%
20 | Cc1cc(C)c2[nH]c(=O)c(CN3CCC4(CCCNC4)C3)cc2c1 (stereo not given) | inconclusive: 14%
21 | O=c1ccc(-c2cccs2)c2n1C[C@H]1C[C@@H]2CN(S(=O)(=O)c2ccccc2)C1 | inconclusive: 23%
22 | CSc1ccc(-c2ccc(=O)n3c2[C@@H]2C[C@@H](CN(C(=O)c4ccco4)C2)C3)cc1 | inactive
23 | CCOc1ccccc1N1CCN(Cc2cccnc2)CC1 | inactive

Two of the compounds above, in markdown:

| Row | Compound | inhibition |
| --- | --- | --- |
| 22 | CSc1ccc(-c2ccc(=O)n3c2[C@@H]2C[C@@H](CN(C(=O)c4ccco4)C2)C3)cc1 | inactive |
| 23 | CCOc1ccccc1N1CCN(Cc2cccnc2)CC1 | inactive |

Further results

Row | Compound | inhibition
24 | Cc1ccc(N2CCC3(CCCNC3)C2)nn1 (stereo not given) | inactive
25 | COc1ccc(N2CCN(Cc3ccc([N+](=O)[O-])cc3)CC2)cc1 | inconclusive: 11%
26 | Cc1ccccc1N1CCN(Cc2cccc([N+](=O)[O-])c2)CC1 | inconclusive: 24%
27 | CC(Cn1cncn1)NCc1ccc2nonc2c1 (stereo not given) | inconclusive: 10%
28 | COc1cccc(/C=C/[N+](=O)[O-])c1 | inconclusive: 10%
29 | COc1cc(C(=O)O[C@H]2[C@@H]3C=CO[C@@H](O[C@@H]4O[C@H](CO)[C@@H](O)[C@H](O)[C@H]4O)[C@@H]3[C@@]3(CO)O[C@@H]23)ccc1O | inconclusive: 17%
30 | CSc1cccc(NC(=O)NC[C@H]2C[C@@H]3CCN2C[C@@H]3CN2CCN(c3ncccn3)CC2)c1 | inconclusive: 18%
31 | Cn1nc(-c2ccc(F)cc2)cc1[C@H]1CN2CC[C@H]1C[C@@H]2CNS(C)(=O)=O | inconclusive: 16%
32 | COc1ccc(CN2CCN(c3ccc(F)cc3)CC2)cc1C | inconclusive: 10%
33 | C=CCN1CC[C@]23CCCCC2[C@H]1Cc1ccc(O)cc13 (stereo not given in full) | inconclusive: 10%
34 | COc1ccc(N2CCN(Cc3cc(Br)ccc3OC)CC2)cc1 | active: 41%
35 | COc1ccccc1-c1cc([C@H]2CN3CC[C@H]2C[C@@H]3CNC(=S)Nc2cccc(C#N)c2)n(C)n1 | inconclusive: 10%
36 | N#Cc1c(N)[n+]([O-])c2ccccc2[n+]1[O-] | inconclusive: 13%
37 | O=[N+]([O-])c1ccc(N2CCN(Cc3ccc(Cl)cc3Cl)CC2)cc1 | inconclusive: 22%
38 | N#Cc1cccc(-c2ccc3n(c2=O)C[C@H]2C[C@@H]3CN(C(=O)c3cncnc3)C2)c1 | inconclusive: 17%
39 | Cn1nc(-c2cccs2)cc1[C@H]1CN2CC[C@H]1C[C@@H]2CNC(=O)Nc1cccc(C#N)c1 | active: 35%
40 | Cc1ccc(CN2[C@@H]3CC[C@H]2CN(C)C(=O)C3)s1 | inactive
41 | CCOc1cc(C)cc2oc(=O)c3c(c12)CCCC3 | inconclusive: 19%
42 | COc1cc2c(cc1O)CCNC2C (stereo not given) | inconclusive: 16%
43 | CCOc1ccccc1N1CCN(Cc2cccc(O)c2)CC1 | inconclusive: 16%
44 | COc1ccc(CN2CCN(c3ccccc3Cl)CC2)cc1 | inconclusive: 18%
45 | CN(C)c1ccc(CN2CCN(Cc3ccccc3)CC2)cc1 | inconclusive: 26%
46 | COc1ccccc1CN1CCN(Cc2ccccc2)CC1 | inconclusive: 18%

Row | Compound | inhibition
47 | COc1ccc(-c2cn(C[C@H]3C[C@@H]4CCN3C[C@@H]4C(=O)N(C)C)nn2)cc1 | inconclusive: 14%
48 | Cc1nc(-c2ccco2)cc([C@H]2CN3CC[C@H]2C[C@@H]3CNC(=O)NCc2ccccc2)n1 | inconclusive: 22%
49 | CCCS(=O)(=O)N1C[C@@H]2C[C@H](C1)c1c(C3CCCCC3)ccc(=O)n1C2 | inconclusive: 16%
50 | Cc1ccc(CN2CCN(C)CC2)c(C)c1 | inconclusive: 19%
51 | CN1CCc2cccc(Cl)c2CC1 | inconclusive: 10%
52 | Oc1cccc(CN2CCN(c3ccccc3Cl)CC2)c1 | inconclusive: 16%
53 | CC[C@H]1C2CC3[C@@H]4N(C)c5ccccc5[C@]45C[C@@H]([C@H]2[C@H]5O)N3[C@@H]1O | inconclusive: 16%
54 | COc1ccc(N=Cc2cc3c(cc2O)OC(N)=C(C#N)C3c2ccco2)cc1 (stereo not given) | active: 30%
55 | CCOc1ccccc1C1N(c2ccccn2)C(=O)C2CCCN21 (stereo not given) | inconclusive: 17%
56 | CC(=O)OC1CC(O)C2(C)C(CC(OC(C)=O)C3(C)C2CCC2(C)C(c4ccoc4)C(=O)C4OC423)C1(C)C (stereo not given) | inconclusive: 22%
57 | N#Cc1cccc(-c2ccc3n(c2=O)C[C@H]2C[C@@H]3CN(C(=O)c3ccc(F)cc3)C2)c1 | inconclusive: 19%
58 | COc1ccc(-c2cn(C[C@H]3CC4CCN3C[C@@H]4C(=O)NCc3ccc4c(c3)OCO4)nn2)cc1 (stereo not given in full) | inconclusive: 25%
59 | CCc1ccc(CN2CCN3C(=O)CNC(=O)C3C2)nc1 (stereo not given) | inconclusive: 11%
60 | C#C[C@H]1CN2CC[C@H]1C[C@@H]2CNS(=O)(=O)c1ccccc1 | inactive
61 | COc1cccc([C@@H]2CCN(Cc3cn(C)c4ccccc34)C[C@H]2O)c1 | inconclusive: 15%
62 | NCC(O)c1ccc(O)cc1 (stereo not given) | inconclusive: 13%
63 | COC(=O)N1CCN(C(=O)Cc2ccc(Cl)c(Cl)c2)C(CN2CCCC2)C1 (stereo not given) | inconclusive: 13%
64 | Cc1ccccc1-c1noc(CNC(C)Cc2cccs2)n1 (stereo not given) | inactive
65 | O=[N+]([O-])c1cc(Cl)ccc1N1CCN(Cc2ccccc2)CC1 | active: 31%
66 | Cc1cnc2c(C(=O)N3CCCC4(CCNC4)C3)cnn2c1 (stereo not given) | inconclusive: 15%
67 | Cc1ccccc1N1CCN(Cc2cccc(Cl)c2)CC1 | inactive
68 | COc1ccc(N2CCN(Cc3ccc(Br)cc3)CC2)cc1 | inconclusive: 22%
69 | CCOC(=O)c1c(C)n(C(C)C)c2ccc(OC)cc12 | inactive

Row | Compound | inhibition
70 | CS(=O)(=O)N1C[C@@H]2C[C@H](C1)c1ccc(-c3ccccc3CN3CCOCC3)c(=O)n1C2 | inconclusive: 18%
71 | C=C[C@H]1[C@H](O[C@@H]2O[C@H](CO)[C@@H](O)[C@H](O)[C@H]2O)OC=C2C(=O)OCC[C@H]21 | inactive
72 | c1ccc(CN2CCN(c3ccccc3)CC2)cc1 | inactive
73 | CCOc1ccccc1CN1CCN(c2ccccc2F)CC1 | inconclusive: 13%
74 | CN(CCc1ccccn1)C[C@H]1CN2CC[C@H]1C[C@@H]2CNC(=O)c1ccc(N(C)C)cc1 | inconclusive: 16%
75 | C=C[C@H]1CN2CC[C@H]1C[C@@H]2CNC(=S)Nc1cc(OC)cc(OC)c1 | inactive
76 | Cc1cccc(-n2c(Cc3cccc([N+](=O)[O-])c3)nc3ccccc3c2=O)c1 | inconclusive: 12%
77 | Cc1nc(-c2ccc(F)cc2)cc([C@H]2CN3CC[C@H]2C[C@@H]3CN)n1 | inactive
78 | Fc1ccccc1N1CCN(Cc2ccc(Cl)cc2)CC1 | inactive
79 | COCCNC(=O)[C@H]1CN2CC[C@H]1C[C@@H]2Cn1cc(C(C)(C)O)nn1 | inactive
80 | CN1C[C@@H]2CC[C@H](CC1=O)N2Cc1cnc(-c2ccco2)nc1 | inconclusive: 18%
81 | CC(Cc1ccccn1)N(C)C1CCN(c2ccc3c(c2)OCO3)CC1 (stereo not given) | inconclusive: 12%
82 | O=C(NCc1ccccc1)[C@H]1CN2CCC1C[C@@H]2Cn1cc(-c2ccc(-c3ccccc3)cc2)nn1 (stereo not given in full) | inconclusive: 15%
83 | CCN(CC)c1nc2c(C)cccn2c(=O)c1C=C1C(=O)NC(=O)NC1=O | inconclusive: 10%
84 | COc1ccccc1CN1CCN(c2ccc(F)cc2)CC1 | inconclusive: 15%
85 | O=[N+]([O-])c1ccc(CN2CCN(c3cccc(Cl)c3)CC2)cc1 | inconclusive: 25%
86 | COc1ccccc1CNC(=O)[C@H]1CN2CCC1C[C@@H]2Cn1cc(CN(C)Cc2ccccc2)nn1 (stereo not given in full) | inconclusive: 18%
87 | COCC(=O)N1CC[C@@H](CC(=O)O)[C@@H](CCN2C[C@@H]3C[C@H](C2)c2cccc(=O)n2C3)C1 | inconclusive: 28%
88 | C#C[C@H]1CN2CC[C@H]1C[C@@H]2CNC(=O)Nc1cc(OC)cc(OC)c1 | inconclusive: 11%
89 | COc1ccc(CCN(C)Cc2ccco2)cc1OC | inactive
90 | Cc1nc(-c2ccc(N(C)C)cc2)cc([C@H]2CN3CC[C@H]2C[C@@H]3CNC(=O)C2CC2)n1 | inconclusive: 18%

2 compounds drawn at random from the list so far, as already listed:
Row | Compound | inhibition
90 | Cc1nc(-c2ccc(N(C)C)cc2)cc([C@H]2CN3CC[C@H]2C[C@@H]3CNC(=O)C2CC2)n1 | inconclusive: 18%
84 | COc1ccccc1CN1CCN(c2ccc(F)cc2)CC1 | inconclusive: 15%
